Test results reported in article PMC7819943, “Rice protein-binding microarrays: a tool to detect cis-acting elements near promoter regions in rice”.
The other results are listed elsewhere or left out.

The sequences below were run against T1, OsSMF1 (Oryza sativa, UniProt Q6ZLB0 1-436) (assay: protein-binding microarray (RPBM); PBS, 2% BSA, 51.3 ng/ul salmon testes DNA, 50 uM zinc acetate, 200 nM TF, 25 C, 1 h; high values mean tight binding). Settings: protein: recombinant; tags: N-terminal polyhistidine and DsRed monomer fusion (pET32a); chain copies: 2; label: CyDye5-dUTP incorporated in the synthesized complementary strand; 3' TTTTT single-stranded linker to array surface; dsDNA, one strand shown.
T1 sequence: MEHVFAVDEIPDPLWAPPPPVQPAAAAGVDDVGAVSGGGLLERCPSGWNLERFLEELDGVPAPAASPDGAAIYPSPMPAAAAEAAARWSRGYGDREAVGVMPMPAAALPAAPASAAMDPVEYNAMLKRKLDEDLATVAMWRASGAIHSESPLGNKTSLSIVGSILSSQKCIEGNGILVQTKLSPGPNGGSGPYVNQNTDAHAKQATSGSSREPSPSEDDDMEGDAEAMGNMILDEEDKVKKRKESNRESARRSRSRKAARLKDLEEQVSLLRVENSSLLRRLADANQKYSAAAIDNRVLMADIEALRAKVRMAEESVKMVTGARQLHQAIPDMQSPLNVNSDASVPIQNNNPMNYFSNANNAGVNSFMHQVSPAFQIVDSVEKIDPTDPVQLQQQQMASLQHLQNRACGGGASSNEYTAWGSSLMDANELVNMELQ
Summary of the method: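 Binding signal is reported as fluorescence intensity per feature (arbitrary units) from an Axon 4000B scanner. Incubation used 200 nM of each Ni–NTA-purified, N-terminally polyhistidine- and DsRed-fused transcription factor from E. coli BL21-CodonPlus on a double-stranded custom Agilent array for 1 h at 25 °C, with 50 µM zinc acetate in the buffer, followed by washing.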

Sequence	binding signal
GCCGTCATTAGCACATGTGTGTTACTGTAGCACTTATGGCCGGAGTCACCTAGTGCAG	3200 fluorescence intensity (a.u.)
CTTTTCTTTGCCTTAACCCGTTTTGCGCGGATGGCCCTTTCGGAGTCACCTAGTGCAG	13600 fluorescence intensity (a.u.)
TCACTTCGCTTCGCCTCTGCTTGCGTGCCAAGTCTAAGACCGGAGTCACCTAGTGCAG	5500 fluorescence intensity (a.u.)
TAAAACTTAATTAATGACGTGTTAAACGCTGCTTCGTTTTCGGAGTCACCTAGTGCAG	12600 fluorescence intensity (a.u.)
CTCCTTTAAAGAAGAGAATTTGATGATGTGTAAGTTTACACGGAGTCACCTAGTGCAG	5780 fluorescence intensity (a.u.)
AAAACATGATTTTGCCGGACAACGCATTCTCCAATTATATCGGAGTCACCTAGTGCAG	3330 fluorescence intensity (a.u.)
TTTAAACTAGTTTCCAAAGAGCCCATCTTCTCCTAATTTCCGGAGTCACCTAGTGCAG	15800 fluorescence intensity (a.u.)
CCTTGCCGCGTGTCCACCTGCCCTTTCATCGACACCAACACGGAGTCACCTAGTGCAG	4740 fluorescence intensity (a.u.)
TTAATCACTTCTCAAACTTTTAATGCAATGACTTGTGAACCGGAGTCACCTAGTGCAG	3420 fluorescence intensity (a.u.)
AAGATTCGTCTCGCAATTTACACGTAATTTCTTTGCATGCCGGAGTCACCTAGTGCAG	5570 fluorescence intensity (a.u.)
TACACAACGGGCATGGATAATGTGGATGGCGTGGATAAGTCGGAGTCACCTAGTGCAG	37700 fluorescence intensity (a.u.)
GCGGTCGGGCCGGCCCAGGAAATACCAGGCGACGTGGCGGCGGAGTCACCTAGTGCAG	8410 fluorescence intensity (a.u.)
CTGGGCCTGCACAGTCCGTCTCCGACCCGCGTGGCCTCTCCGGAGTCACCTAGTGCAG	3500 fluorescence intensity (a.u.)
GCGGATTAATTACTACTGGGCTGGCATTCTGATCACTTTGCGGAGTCACCTAGTGCAG	5260 fluorescence intensity (a.u.)
ACTGGTTGACTGACTTGTAATAACGTCTGCCATCTCTCTCCGGAGTCACCTAGTGCAG	3890 fluorescence intensity (a.u.)
ATATAAGTCATTCTAACATTTTCCACATTCATTTTGATGTCGGAGTCACCTAGTGCAG	3530 fluorescence intensity (a.u.)
AGTATACGTGACGAGACATTACTGCTGTGTCGCGAGGCCCCGGAGTCACCTAGTGCAG	4800 fluorescence intensity (a.u.)
GCTGTGGAGGAGGGCGTTGGCAGGGGCGACGTGGGAGTAGCGGAGTCACCTAGTGCAG	3330 fluorescence intensity (a.u.)
ATAAAGCTCACATGTCATCCTCCTCCTCTCTCTCCTTCTCCGGAGTCACCTAGTGCAG	3370 fluorescence intensity (a.u.)
CTGCTCGGCGTCACCGTCATCGTCTACCTCCAGGAGAAGGCGGAGTCACCTAGTGCAG	3960 fluorescence intensity (a.u.)
TCAACTGCTGACTCTGTTGAGATCAAACTGAAAGTACTAGCGGAGTCACCTAGTGCAG	3830 fluorescence intensity (a.u.)

Rewritten with bars between the fields: part of the list above
Sequence | binding signal
CTTTTCTTTGCCTTAACCCGTTTTGCGCGGATGGCCCTTTCGGAGTCACCTAGTGCAG | 13600 fluorescence intensity (a.u.)
TTTAAACTAGTTTCCAAAGAGCCCATCTTCTCCTAATTTCCGGAGTCACCTAGTGCAG | 15800 fluorescence intensity (a.u.)
CCTTGCCGCGTGTCCACCTGCCCTTTCATCGACACCAACACGGAGTCACCTAGTGCAG | 4740 fluorescence intensity (a.u.)
GCGGTCGGGCCGGCCCAGGAAATACCAGGCGACGTGGCGGCGGAGTCACCTAGTGCAG | 8410 fluorescence intensity (a.u.)

(list continues)

Sequence	binding signal
TCCAAGTTCAACGATCATGTGCATGACAGTGAACCAACGGCGGAGTCACCTAGTGCAG	3340 fluorescence intensity (a.u.)
TGCTTACTAGCTTAGGTAGGCAGCAGGCATTTCGTGGACACGGAGTCACCTAGTGCAG	3290 fluorescence intensity (a.u.)
TCTCCCGCGTCACACCGAACGCCAATCCCAGGCCGCCCACCGGAGTCACCTAGTGCAG	3550 fluorescence intensity (a.u.)
TTTTCAATAATTCATTTATTCACACTTGTTAATTGGCAGACGGAGTCACCTAGTGCAG	12800 fluorescence intensity (a.u.)
CCTCCTCAGCTAGTAGTAGCCGCCTCATCACGCGCCGCTCCGGAGTCACCTAGTGCAG	3970 fluorescence intensity (a.u.)
TGGTTAGTTGGCTCCAGATAGTTAGGTTTTAGGGAGAGGTCGGAGTCACCTAGTGCAG	3960 fluorescence intensity (a.u.)
ACTAGTTTACAACCACACCAACATGTAGGCATGAACATGGCGGAGTCACCTAGTGCAG	22900 fluorescence intensity (a.u.)
TGCTTGCTCGCATGCATGGCGTCATCTTCTATTGGCTGCACGGAGTCACCTAGTGCAG	10200 fluorescence intensity (a.u.)
GTTTGATGAGTATTAGGCGTGACACATGACAAATCACAGACGGAGTCACCTAGTGCAG	4260 fluorescence intensity (a.u.)
CTCAGCGTCCCTCTCCCTGCACATTTACTCGTATGCACAGCGGAGTCACCTAGTGCAG	3210 fluorescence intensity (a.u.)
CATATCTTTGTCAGTGACAAGTGGATCCATGATTCATCGGCGGAGTCACCTAGTGCAG	3650 fluorescence intensity (a.u.)
CTTCTGTTGCACAGGTCACAAGCGTCCCCTTGATGTTACCCGGAGTCACCTAGTGCAG	3160 fluorescence intensity (a.u.)
GACGGCTGACCTAAACGTGCAGTGTCTGACACTACTTAAGCGGAGTCACCTAGTGCAG	3560 fluorescence intensity (a.u.)
TGGAAAATTTTAAGTTATGCTAAATATATGTGTCATGCATCGGAGTCACCTAGTGCAG	4360 fluorescence intensity (a.u.)
CTGTTGCATACTTGGCTGACGTTGATGTTGTTGGAGTGCTCGGAGTCACCTAGTGCAG	3210 fluorescence intensity (a.u.)
GGCTAGAGAGGGATCAAGGGTAGGAGGGAGAGGAACGGATCGGAGTCACCTAGTGCAG	3210 fluorescence intensity (a.u.)
GTATAAAACGCGTGCACACTCACCCACACAGATACCATATCGGAGTCACCTAGTGCAG	4360 fluorescence intensity (a.u.)
TGCTGGCTGAATACTACTACCATGTCATCTATAGCCATCACGGAGTCACCTAGTGCAG	3350 fluorescence intensity (a.u.)
TGCTGAGATCTTCATTTCTGAATACCTTGTGGAATCCGGACGGAGTCACCTAGTGCAG	25000 fluorescence intensity (a.u.)
GCATCAGCGGCACAGGAACCTCAGAAGATCCGACAAAACGCGGAGTCACCTAGTGCAG	4490 fluorescence intensity (a.u.)
TCAAAAGAATCAACACACGTGGCCTTACATTCCTCTCAAACGGAGTCACCTAGTGCAG	7760 fluorescence intensity (a.u.)
